Reference: PMC8657445
No constants are given. Whether binding was seen depends on the method and setting. In cells and extracts the contact can be indirect. Some binding calls cover weakened binding; strength is not graded here. Sequences can lack the tags named with a protein. Blank lines part the entries; values can stand above or below the binder they belong to.

Legend:
[1] = biological target: T1, AtPII-GFP (Arabidopsis thaliana) (UniProt Q9ZST4); test: FRET or BRET; FRET/FLIM: GFP donor lifetime of co-localising GFP and mCherry signals against AtPII-GFP alone; 2in1 pFRET vectors under p35S; transiently transformed N. benthamiana leaf disks, plastids in the epidermis
T1 sequence: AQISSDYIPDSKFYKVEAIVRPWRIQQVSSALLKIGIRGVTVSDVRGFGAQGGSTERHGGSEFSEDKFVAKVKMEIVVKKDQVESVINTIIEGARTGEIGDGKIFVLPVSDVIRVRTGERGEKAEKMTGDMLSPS

[2] = biological target: T1, AtPII-GFP (Arabidopsis thaliana); test: co-IP; GFP-tagged proteins isolated with GFP traps from protein extracts of co-infiltrated tobacco leaves; co-eluted mCherry-tagged proteins detected by Western blot with an anti-RFP antibody
[3] = biological target: T2, AtPII-nYFP (Arabidopsis thaliana) (UniProt Q9ZST4); test: split reporter; BiFC with nYFP and cYFP fusions from one 2in1 pBiFC vector under p35S; N. benthamiana leaves three days after transient transformation; internal RFP as transformation control
T2 sequence: T1 sequence

[4] = biological target: T3, AtPII-nYFP (Arabidopsis thaliana), Q9ZST4; test: as above; conditions: remark: other sources report otherwise
T3 chain: T1 sequence

[5] = biological target: T4, AtPII-GFP (Arabidopsis thaliana), Q9ZST4; test: FRET or BRET; FRET/FLIM: GFP donor lifetime of co-localising GFP and mCherry signals against AtPII-GFP alone; 2in1 pFRET vectors under p35S; transiently transformed N. benthamiana leaf disks, plastids in the epidermis; conditions: remark: other sources report otherwise
T4 chain: T1 sequence

B1: AtDXS-mCherry (enzyme, UniProt Q38854 59-717)
chain: ASLAEKGEYYSNRPPTPLLDTINYPIHMKNLSVKELKQLSDELRSDVIFNVSKTGGHLGSSLGVVELTVALHYIFNTPQDKILWDVGHQSYPHKILTGRRGKMPTMRQTNGLSGFTKRGESEHDCFGTGHSSTTISAGLGMAVGRDLKGKNNNVVAVIGDGAMTAGQAYEAMNNAGYLDSDMIVILNDNKQVSLPTATLDGPSPPVGALSSALSRLQSNPALRELREVAKGMTKQIGGPMHQLAAKVDEYARGMISGTGSSLFEELGLYYIGPVDGHNIDDLVAILKEVKSTRTTGPVLIHVVTEKGRGYPYAERADDKYHGVVKFDPATGRQFKTTNKTQSYTTYFAEALVAEAEVDKDVVAIHAAMGGGTGLNLFQRRFPTRCFDVGIAEQHAVTFAAGLACEGLKPFCAIYSSFMQRAYDQVVHDVDLQKLPVRFAMDRAGLVGADGPTHCGAFDVTFMACLPNMIVMAPSDEADLFNMVATAVAIDDRPSCFRYPRGNGIGVALPPGNKGVPIEIGKGRILKEGERVALLGYGSAVQSCLGAAVMLEERGLNVTVADARFCKPLDRALIRSLAKSHEVLITVEEGSIGGFGSHVVQFLALDGLLDGKLKWRPMVLPDRYIDHGAPADQLAEAGLMPSHIAATALNLIGAPREALF
binding [1]: binds

B3: AtNAGK-cYFP (enzyme, UniProt Q9SCL7 51-347)
chain: TVSTPPSIATGNAPSPDYRVEILSESLPFIQKFRGKTIVVKYGGAAMTSPELKSSVVSDLVLLACVGLRPILVHGGGPDINRYLKQLNIPAEFRDGLRVTDATTMEIVSMVLVGKVNKNLVSLINAAGATAVGLSGHDGRLLTARPVPNSAQLGFVGEVARVDPSVLRPLVDYGYIPVIASVAADDSGQAYNINADTVAGELAAALGAEKLILLTDVAGILENKEDPSSLIKEIDIKGVKKMIEDGKVAGGMIPKVKCCIRSLAQGVKTASIIDGRRQHSLLHEIMSDEGAGTMITG
binding [3]: binds

B4: AtBCCP1-cYFP, Q42533 83-280 (protein)
chain: SAEGKEKNSLKESSASSPELATEESISEFLTQVTTLVKLVDSRDIVELQLKQLDCELVIRKKEALPQPQAPASYVMMQQPNQPSYAQQMAPPAAPAAAAPAPSTPASLPPPSPPTPAKSSLPTVKSPMAGTFYRSPAPGEPPFIKVGDKVQKGQVLCIVEAMKLMNEIESDHTGTVVDIVAEDGKPVSLDTPLFVVQP
binding [4]: binds

B5: AtBCCP1-mCherry, Q42533 83-280 (protein)
chain: B4 chain
binding [5]: binds

The remaining lines, values ahead:

binding [2]: binds
binding [1]: binds
B2: AtNAGK-mCherry (enzyme, UniProt Q9SCL7 51-347)
chain: B3 chain

binding [3]: binds
B6: AtPII-nYFP (protein, UniProt Q9ZST4 62-196)
chain: T1 sequence

binding [2]: binds
binding [1]: binds
B7: AtPII-GFP (protein, UniProt Q9ZST4 62-196)
chain: T1 sequence
